Experimental data as given in US20190119696A1 (YEDA RESEARCH AND DEVELOPMENT, published 2019).
These are yes or no findings as the source states them, for the method shown. For part of these data: Binding calls can cover weak binding; strength is not graded here. For part of these data: Sequences can lack the tags named with a protein.

Experiments:
[1] = molecular target: T1, APS1 (small subunit of ADP-glucose pyrophosphorylase, AGPase; AT5G48300), endogenous in Arabidopsis plants (Arabidopsis thaliana) (UniProt P55228); test: in planta trapping of intermolecular disulfide complexes; non-reducing SDS-PAGE, anti-HA immunoblot (FIG. 1B: the additional complex did not form in ACHT1 extracts)
T1 sequence (looked up): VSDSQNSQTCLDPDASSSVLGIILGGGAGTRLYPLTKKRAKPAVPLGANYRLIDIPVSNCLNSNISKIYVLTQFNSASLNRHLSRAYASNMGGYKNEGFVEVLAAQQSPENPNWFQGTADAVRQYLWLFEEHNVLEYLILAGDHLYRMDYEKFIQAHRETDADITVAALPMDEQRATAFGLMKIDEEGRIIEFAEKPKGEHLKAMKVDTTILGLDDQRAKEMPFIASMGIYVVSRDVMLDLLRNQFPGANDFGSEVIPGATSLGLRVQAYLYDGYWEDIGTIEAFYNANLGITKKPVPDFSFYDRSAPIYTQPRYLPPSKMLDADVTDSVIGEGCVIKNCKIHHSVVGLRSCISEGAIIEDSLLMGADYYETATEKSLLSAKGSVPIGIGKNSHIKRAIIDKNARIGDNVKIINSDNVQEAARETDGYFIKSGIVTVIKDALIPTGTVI

[2] = molecular target: T2, 2-Cys Prx (2-Cys peroxiredoxin, 2-Cys PrxA, At3g11630), endogenous in Arabidopsis plants (Arabidopsis thaliana) (UniProt Q96291); test: in planta trapped intermolecular disulfide complexes; non-reducing SDS-PAGE, immunoblot
T2 sequence (looked up): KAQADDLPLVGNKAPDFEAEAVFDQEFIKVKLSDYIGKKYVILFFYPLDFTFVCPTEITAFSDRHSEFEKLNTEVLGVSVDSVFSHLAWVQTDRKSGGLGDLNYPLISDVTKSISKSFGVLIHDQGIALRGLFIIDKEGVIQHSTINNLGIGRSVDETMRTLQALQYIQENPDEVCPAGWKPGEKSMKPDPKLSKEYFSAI

[3] = molecular target: T2, 2-Cys Prx (2-Cys peroxiredoxin, 2-Cys PrxA, At3g11630), endogenous in Arabidopsis plants (Arabidopsis thaliana); test: in planta trapped intermolecular disulfide complexes; denatured non-reduced extracts, protein blot

binding [1]: no binding
binding [2]: binds
binding [3]: binds
Substance: ACHT1MT (Arabidopsis thaliana atypical cysteine histidine-rich thioredoxin 1), HA-tagged (enzyme)
